US20140228279A1, “CATIONIC PEPTIDOPOLYSACCHARIDES WITH EXCELLENT BROAD- SPECTRUM ANTIMICROBIAL ACTIVITIES AND HIGH SELECTIVITY” (priority 2011, published 2014)
Where two headings read alike, the source gives them in different places.

Columns and labels:
human red blood cells [1] = experiment: Hemolysis assay; type: cell-based; details: E. coli over human red blood cells
Protocol: Fresh human blood (5 ml) was collected from a healthy donor. Erythrocytes were separated by centrifugation at 1000 rpm for 10 min, washed three times with Tris buffer (10 mM Tris, 150 mM NaCl, pH 7.2) and diluted to final concentration (5%, v/v). 50 μl of antimicrobial solution at different concentrations mixed with 50 μl erythrocytes stock were added to a 96-well microplate and incubated for 1 h at 37° C. with 150 rpm shaking. The microplate were centrifuged at 1,000 rpm for 10 min. 80 μl aliquots of the supernatant were then transferred to a new 96-well microplate and diluted with another 80 μl of Tris buffer. Hemolysis was measured as the absorbance at 540 nm with a microplate reader (BIO-RAD, US). Complete hemolysis was determined in Tris buffer plus 0.1% Triton x-100 as positive control, while Tris buffer was used as negative control. The percentage of hemolysis (H) was calculated using the following equation: Hemolysis=[(Op−Ob)/(Ot−Ob)]×100%, where Op is the density for a given antimicrobial agent concentration, Ob is the density for the buffer, and Ot is the density for the Triton x-100 positive control.

human red blood cells [2] = details: comparator agents (#3A-#6E), previously reported; cited from earlier work

Row | Molecule | Selectivity: HC50/MIC(E. coli) (human red blood cells [1]) | Selectivity: HC50/MIC(E. coli) (human red blood cells [2])
1 | chitosan-graft-poly(lysine-ran-phenylalanine) [CS-g-K8F8] | <5 | –
2 | CC[C@H](C)[C@H](NC(=O)CN)C(=O)NCC(=O)N[C@@H](C)C(=O)N[C@H](C(=O)N[C@@H](CC(C)C)C(=O)N[C@@H](CCCCN)C(=O)N[C@H](C(=O)N[C@@H](CC(C)C)C(=O)N[C@H](C(=O)N[C@H](C(=O)NCC(=O)N[C@@H](CC(C)C)C(=O)N1CCC[C@H]1C(=O)N[C@@H](C)C(=O)N[C@@H](CC(C)C)C(=O)N[C@H](C(=O)N[C@@H](CO)C(=O)N[C@@H](Cc1c[nH]c2ccccc12)C(=O)N[C@H](C(=O)N[C@@H](CCCCN)C(=O)N[C@@H](CCCNC(=N)N)C(=O)N[C@@H](CCCCN)C(=O)N[C@@H](CCCNC(=N)N)C(=O)N[C@@H](CCC(N)=O)C(=O)N[C@@H](CCC(N)=O)C(N)=O)[C@@H](C)CC)[C@@H](C)CC)[C@@H](C)O)[C@@H](C)O)C(C)C)C(C)C [Melittin] | – | 0.15
3 | chitosan-graft-poly(lysine-ran-phenylalanine) [CS-g-K12.5F12.5] | 12 | –
